Reference: PMC4982022
No constants are given. Whether binding was seen depends on the method and setting. In cells and extracts the contact can be indirect. Some entries that bind do so weakly or less than the wild type. Tags and fused reporters may be left off the sequences shown.

Sequences of proteins named here, by UniProt entry; tags and fusion partners are left off.
UniProt P61765: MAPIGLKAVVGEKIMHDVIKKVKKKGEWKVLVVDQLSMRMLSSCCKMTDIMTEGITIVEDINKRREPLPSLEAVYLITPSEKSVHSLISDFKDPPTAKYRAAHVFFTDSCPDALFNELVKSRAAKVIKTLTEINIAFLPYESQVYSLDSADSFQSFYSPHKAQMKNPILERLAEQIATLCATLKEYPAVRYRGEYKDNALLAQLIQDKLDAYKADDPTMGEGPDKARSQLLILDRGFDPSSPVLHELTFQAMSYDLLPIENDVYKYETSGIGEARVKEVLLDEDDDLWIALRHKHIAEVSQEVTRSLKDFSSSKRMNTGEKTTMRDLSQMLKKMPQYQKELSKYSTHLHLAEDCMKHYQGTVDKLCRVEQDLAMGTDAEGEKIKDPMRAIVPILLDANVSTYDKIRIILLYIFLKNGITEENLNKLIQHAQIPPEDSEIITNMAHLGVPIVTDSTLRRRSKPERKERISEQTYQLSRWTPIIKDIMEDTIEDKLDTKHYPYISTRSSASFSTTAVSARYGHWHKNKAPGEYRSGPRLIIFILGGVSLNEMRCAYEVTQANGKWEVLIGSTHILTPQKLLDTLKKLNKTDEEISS

Molecular target: T1, GST‐Mint1(1‐314) (mouse) (UniProt B2RUJ5)
T1 sequence: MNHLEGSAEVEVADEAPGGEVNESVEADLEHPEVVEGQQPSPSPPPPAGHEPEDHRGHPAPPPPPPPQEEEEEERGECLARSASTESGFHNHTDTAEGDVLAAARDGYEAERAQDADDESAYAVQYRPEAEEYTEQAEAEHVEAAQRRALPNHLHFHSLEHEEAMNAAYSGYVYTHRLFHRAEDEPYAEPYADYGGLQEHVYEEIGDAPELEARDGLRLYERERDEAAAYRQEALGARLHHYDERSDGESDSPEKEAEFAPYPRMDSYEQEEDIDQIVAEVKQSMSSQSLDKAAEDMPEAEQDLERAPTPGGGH
Assay: pull-down; GST‐Mint1(1‐314) incubated with or without C‐Src kinase, then with glutathione resin and bacterial lysate containing His‐Munc18; bound Munc18 detected by immunoblotting; only the target purified

His‐Munc18 (from UniProt P61765 1-594)
binding: binds
